Test results reported in the supplement of paper PMC10060354, “Discovery of a small molecule ligand of FRS2 that inhibits invasion and tumor growth” (Cellular Oncology, 2022).
Single values are uncertain, as repeats are few or missing.

Protein sequences, listed by entry. Tags and fused reporters are not part of them. Lines headed by an entry give the natural chain unless they say otherwise; changes in a name come on top.
UniProt P48200: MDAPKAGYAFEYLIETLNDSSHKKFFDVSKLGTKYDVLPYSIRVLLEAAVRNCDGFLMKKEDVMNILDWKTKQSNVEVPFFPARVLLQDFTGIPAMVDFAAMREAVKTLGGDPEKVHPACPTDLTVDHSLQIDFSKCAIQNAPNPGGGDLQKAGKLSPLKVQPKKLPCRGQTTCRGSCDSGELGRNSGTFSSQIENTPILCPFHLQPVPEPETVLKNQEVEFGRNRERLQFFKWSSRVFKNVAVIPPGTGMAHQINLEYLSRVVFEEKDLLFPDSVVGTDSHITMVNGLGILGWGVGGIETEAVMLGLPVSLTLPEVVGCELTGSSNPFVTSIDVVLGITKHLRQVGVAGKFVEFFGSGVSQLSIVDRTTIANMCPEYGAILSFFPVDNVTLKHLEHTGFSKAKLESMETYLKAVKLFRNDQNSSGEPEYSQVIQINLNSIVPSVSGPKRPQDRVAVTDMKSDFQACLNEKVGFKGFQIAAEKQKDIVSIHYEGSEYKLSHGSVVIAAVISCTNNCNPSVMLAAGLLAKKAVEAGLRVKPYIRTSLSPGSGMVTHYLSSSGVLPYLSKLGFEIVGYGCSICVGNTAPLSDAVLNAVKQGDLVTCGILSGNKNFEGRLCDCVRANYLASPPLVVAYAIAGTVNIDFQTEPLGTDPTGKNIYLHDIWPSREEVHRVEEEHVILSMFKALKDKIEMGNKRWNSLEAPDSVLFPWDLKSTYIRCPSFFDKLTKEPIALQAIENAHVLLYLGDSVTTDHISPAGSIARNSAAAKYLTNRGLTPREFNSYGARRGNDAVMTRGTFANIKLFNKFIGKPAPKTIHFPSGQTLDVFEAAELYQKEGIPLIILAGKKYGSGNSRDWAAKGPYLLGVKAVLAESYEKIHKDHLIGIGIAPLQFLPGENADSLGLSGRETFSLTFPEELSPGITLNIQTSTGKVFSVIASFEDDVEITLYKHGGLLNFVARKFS
UniProt Q8ND04: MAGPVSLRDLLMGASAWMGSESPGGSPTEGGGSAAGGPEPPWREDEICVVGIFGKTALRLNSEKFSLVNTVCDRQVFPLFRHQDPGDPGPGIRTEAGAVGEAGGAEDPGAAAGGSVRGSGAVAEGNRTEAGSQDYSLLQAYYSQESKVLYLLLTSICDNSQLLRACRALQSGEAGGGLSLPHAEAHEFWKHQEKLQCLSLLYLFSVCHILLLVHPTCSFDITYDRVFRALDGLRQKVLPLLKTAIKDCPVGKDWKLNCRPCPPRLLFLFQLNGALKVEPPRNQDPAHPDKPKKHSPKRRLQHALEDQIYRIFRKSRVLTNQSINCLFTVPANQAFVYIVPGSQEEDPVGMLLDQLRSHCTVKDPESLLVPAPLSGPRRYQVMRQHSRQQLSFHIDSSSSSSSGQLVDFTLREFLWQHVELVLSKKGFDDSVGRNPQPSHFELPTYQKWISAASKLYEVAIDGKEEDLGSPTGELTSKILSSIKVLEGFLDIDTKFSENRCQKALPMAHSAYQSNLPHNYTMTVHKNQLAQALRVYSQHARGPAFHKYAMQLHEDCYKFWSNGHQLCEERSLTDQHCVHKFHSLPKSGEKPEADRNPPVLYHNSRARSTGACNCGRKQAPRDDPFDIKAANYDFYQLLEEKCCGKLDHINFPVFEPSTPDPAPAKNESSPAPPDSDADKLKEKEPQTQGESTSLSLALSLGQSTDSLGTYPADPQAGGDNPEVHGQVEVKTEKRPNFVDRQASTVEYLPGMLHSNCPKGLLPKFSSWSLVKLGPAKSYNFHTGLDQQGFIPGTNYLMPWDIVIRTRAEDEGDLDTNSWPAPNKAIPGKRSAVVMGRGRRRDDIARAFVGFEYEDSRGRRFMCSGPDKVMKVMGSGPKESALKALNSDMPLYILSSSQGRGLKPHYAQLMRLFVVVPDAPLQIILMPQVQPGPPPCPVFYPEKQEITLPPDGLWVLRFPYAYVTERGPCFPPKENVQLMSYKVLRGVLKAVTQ
UniProt Q8NEF9: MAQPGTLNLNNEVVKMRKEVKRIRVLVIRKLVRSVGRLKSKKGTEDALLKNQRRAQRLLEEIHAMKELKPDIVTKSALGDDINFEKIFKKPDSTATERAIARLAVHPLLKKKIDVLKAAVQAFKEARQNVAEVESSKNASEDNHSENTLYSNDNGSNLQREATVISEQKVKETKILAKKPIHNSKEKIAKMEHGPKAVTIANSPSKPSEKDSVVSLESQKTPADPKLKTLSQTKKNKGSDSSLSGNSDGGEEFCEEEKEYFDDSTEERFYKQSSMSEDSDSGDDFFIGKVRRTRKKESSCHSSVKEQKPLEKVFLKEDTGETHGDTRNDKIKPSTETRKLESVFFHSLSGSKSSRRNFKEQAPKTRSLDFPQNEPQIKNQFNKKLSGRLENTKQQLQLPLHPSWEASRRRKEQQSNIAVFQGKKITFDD
UniProt Q15386: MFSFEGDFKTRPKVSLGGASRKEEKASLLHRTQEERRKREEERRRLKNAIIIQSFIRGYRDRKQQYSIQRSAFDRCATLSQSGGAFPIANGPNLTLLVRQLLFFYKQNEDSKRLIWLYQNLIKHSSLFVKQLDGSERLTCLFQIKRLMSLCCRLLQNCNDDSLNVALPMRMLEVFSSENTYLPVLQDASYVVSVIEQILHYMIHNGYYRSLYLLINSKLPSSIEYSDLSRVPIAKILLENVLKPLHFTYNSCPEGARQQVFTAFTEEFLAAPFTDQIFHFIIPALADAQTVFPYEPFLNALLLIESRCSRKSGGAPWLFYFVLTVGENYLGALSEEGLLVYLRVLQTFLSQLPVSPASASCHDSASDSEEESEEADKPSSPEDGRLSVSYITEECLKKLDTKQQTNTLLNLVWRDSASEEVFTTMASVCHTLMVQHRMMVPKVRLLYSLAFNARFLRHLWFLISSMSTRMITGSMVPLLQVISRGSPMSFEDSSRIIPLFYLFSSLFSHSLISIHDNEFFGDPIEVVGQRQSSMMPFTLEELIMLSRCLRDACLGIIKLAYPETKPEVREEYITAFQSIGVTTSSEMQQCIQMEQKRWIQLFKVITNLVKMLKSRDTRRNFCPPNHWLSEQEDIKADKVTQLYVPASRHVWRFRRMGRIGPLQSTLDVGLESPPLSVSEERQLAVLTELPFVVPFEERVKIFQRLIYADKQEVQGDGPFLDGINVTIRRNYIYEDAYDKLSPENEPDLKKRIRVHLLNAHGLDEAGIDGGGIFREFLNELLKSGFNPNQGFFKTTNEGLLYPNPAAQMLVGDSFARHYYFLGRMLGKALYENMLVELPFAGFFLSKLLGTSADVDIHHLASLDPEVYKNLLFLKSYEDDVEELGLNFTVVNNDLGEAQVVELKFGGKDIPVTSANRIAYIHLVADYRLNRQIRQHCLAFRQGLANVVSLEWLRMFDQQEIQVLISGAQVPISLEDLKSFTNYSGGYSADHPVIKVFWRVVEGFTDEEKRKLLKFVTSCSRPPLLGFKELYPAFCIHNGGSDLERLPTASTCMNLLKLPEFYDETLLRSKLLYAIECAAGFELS
UniProt Q8WUN7: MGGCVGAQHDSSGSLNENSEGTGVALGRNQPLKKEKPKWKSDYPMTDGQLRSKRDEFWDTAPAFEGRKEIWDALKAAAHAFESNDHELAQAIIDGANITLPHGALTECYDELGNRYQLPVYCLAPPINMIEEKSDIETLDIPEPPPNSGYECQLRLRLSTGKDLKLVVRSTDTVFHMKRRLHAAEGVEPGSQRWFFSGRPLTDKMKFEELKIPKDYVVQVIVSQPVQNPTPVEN
UniProt P39748, whole entry: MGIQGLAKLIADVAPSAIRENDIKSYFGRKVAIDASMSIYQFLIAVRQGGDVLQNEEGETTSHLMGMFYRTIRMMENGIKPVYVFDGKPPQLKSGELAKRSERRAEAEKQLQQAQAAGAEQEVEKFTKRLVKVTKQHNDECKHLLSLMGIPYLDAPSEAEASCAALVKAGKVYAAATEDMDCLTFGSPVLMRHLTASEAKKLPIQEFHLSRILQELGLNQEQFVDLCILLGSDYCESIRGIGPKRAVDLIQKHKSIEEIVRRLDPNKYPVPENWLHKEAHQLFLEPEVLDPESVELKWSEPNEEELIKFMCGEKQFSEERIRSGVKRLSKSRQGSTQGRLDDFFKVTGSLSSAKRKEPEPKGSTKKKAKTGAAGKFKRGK
UniProt Q9NUQ2: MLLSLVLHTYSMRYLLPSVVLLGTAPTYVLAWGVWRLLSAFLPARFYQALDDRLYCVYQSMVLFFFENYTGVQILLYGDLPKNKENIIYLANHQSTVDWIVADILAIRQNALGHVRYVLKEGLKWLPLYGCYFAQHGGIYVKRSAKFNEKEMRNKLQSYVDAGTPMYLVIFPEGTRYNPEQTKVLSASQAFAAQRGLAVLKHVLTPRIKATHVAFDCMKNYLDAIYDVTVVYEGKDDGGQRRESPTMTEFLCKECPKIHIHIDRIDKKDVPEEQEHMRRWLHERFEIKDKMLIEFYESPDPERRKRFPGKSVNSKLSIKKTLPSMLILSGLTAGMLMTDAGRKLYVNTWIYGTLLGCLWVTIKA
UniProt Q7L8W6: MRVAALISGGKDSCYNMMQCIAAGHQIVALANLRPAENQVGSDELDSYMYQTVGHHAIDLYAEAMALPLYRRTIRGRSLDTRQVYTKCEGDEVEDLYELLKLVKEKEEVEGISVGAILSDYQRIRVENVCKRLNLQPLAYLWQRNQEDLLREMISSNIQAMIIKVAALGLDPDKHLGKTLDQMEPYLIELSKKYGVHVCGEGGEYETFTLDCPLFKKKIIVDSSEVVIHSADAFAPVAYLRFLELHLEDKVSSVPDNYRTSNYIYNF
UniProt P08758: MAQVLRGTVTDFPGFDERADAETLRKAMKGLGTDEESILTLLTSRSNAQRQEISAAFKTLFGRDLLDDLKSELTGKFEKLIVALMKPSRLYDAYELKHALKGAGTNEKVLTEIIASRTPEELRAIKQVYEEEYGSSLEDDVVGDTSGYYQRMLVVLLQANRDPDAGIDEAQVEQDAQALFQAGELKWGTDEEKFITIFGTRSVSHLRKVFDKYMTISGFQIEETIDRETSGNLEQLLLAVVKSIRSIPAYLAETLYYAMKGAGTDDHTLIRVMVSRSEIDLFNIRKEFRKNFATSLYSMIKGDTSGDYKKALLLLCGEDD
UniProt Q9UBF1: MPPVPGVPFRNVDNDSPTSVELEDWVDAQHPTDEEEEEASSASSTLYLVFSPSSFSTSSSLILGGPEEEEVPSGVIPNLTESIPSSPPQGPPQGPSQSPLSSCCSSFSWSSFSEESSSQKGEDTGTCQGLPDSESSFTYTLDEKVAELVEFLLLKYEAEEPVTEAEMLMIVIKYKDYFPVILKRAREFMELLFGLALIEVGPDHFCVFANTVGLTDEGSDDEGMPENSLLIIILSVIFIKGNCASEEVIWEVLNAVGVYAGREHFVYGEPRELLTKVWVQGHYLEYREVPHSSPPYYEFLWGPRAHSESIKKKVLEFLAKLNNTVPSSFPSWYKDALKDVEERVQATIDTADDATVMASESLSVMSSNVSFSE
UniProt Q9Y383: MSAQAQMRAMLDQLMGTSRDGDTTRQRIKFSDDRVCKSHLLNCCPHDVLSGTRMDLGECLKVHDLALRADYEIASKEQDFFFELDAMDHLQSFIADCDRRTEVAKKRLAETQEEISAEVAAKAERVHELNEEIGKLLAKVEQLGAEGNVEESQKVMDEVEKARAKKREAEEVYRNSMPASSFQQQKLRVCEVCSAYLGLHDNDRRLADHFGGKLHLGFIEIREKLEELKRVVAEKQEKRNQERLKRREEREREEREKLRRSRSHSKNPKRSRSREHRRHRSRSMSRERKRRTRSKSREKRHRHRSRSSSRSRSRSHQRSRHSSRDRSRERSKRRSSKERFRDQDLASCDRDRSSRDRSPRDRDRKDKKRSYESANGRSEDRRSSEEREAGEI
UniProt Q9NRK6: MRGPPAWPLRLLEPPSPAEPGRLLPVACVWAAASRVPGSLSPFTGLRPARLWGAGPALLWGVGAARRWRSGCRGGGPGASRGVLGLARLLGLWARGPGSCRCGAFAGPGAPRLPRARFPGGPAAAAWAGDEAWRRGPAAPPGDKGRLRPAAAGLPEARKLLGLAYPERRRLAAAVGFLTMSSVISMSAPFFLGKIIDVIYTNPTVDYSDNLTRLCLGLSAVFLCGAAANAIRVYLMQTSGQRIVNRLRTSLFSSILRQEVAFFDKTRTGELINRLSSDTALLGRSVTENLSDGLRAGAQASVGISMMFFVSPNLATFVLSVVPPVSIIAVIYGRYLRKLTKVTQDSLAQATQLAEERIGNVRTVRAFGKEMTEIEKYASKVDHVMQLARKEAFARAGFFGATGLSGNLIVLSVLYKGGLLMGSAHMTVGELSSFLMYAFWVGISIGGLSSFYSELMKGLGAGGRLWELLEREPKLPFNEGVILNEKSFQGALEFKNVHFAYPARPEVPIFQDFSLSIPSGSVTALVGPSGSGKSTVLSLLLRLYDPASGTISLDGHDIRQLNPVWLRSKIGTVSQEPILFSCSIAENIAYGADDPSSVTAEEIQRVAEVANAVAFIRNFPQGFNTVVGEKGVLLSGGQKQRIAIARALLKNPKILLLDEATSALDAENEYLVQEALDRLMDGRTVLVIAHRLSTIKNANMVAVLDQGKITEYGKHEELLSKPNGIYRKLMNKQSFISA

Compound: [O-][N+](C(C1=C(C(O)=C2)NC(C(C=C3)=CC=C3Cl)C4C1C=CC4)=C2Cl)=O
Assay: melting temperature shift (compound 7 minus DMSO); higher = compound stabilises the protein
Settings: 10 µM
Procedure: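 Thermal proteome profiling (TMT mass spectrometry) in intact DAOY medulloblastoma cells or DAOY lysates treated with 10 µM compound 7 or DMSO, heated at 10 temperatures from 40.5 to 73.8 °C for 3 min. Melting curves were fitted with the Bioconductor TPP package, and the melting point difference between compound and vehicle is reported per protein (single curve per condition).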

[1] = system: DAOY cell lysate, treatment time: 20 min, 4 °C
[2] = system: intact DAOY cells, treatment time: 90 min, 37 °C

## NFIC (UniProt P08651)
[1]
  melting temperature shift: 1.01 °C
[2]
  melting temperature shift: 2.55 °C

## UniProt Q96MY1
[1]
  melting temperature shift: -0.48 °C
[2]
  melting temperature shift: -2.06 °C

## UniProt P13612
[1]
  melting temperature shift: -0.0378 °C

## MAN1A2 (UniProt O60476)
[1]
  melting temperature shift: 1.31 °C
[2]
  melting temperature shift: -0.91 °C

## UniProt Q7Z6J8
[1]
  melting temperature shift: -0.607 °C
[2]
  melting temperature shift: -0.249 °C

## UniProt P15848
[1]
  melting temperature shift: -0.199 °C

## LSM1 (UniProt O15116)
[1]
  melting temperature shift: 0.202 °C
[2]
  melting temperature shift: 0.888 °C

## IREB2 (UniProt P48200)
[1]
  melting temperature shift: -0.19 °C
[2]
  melting temperature shift: 2.46 °C

## SMG8 (UniProt Q8ND04)
[1]
  melting temperature shift: -1.5 °C
[2]
  melting temperature shift: 0.858 °C

## SRFBP1 (UniProt Q8NEF9)
[1]
  melting temperature shift: 0.7 °C

## TXNDC9 (UniProt O14530)
[1]
  melting temperature shift: -0.601 °C
[2]
  melting temperature shift: 0.197 °C

## SH2D4A (UniProt Q9H788)
[1]
  melting temperature shift: 0.999 °C
[2]
  melting temperature shift: -0.0857 °C

## EMC1 (UniProt Q8N766)
[1]
  melting temperature shift: 0.791 °C
[2]
  melting temperature shift: -0.305 °C

## SPG20 (UniProt Q8N0X7)
[1]
  melting temperature shift: -0.0632 °C
[2]
  melting temperature shift: -0.438 °C

## COMMD4 (UniProt Q9H0A8)
[1]
  melting temperature shift: -0.475 °C
[2]
  melting temperature shift: -0.182 °C

## DYNLL1 (UniProt P63167)
[1]
  melting temperature shift: 0.99 °C
[2]
  melting temperature shift: 0.948 °C

## UniProt P05106
[1]
  melting temperature shift: -1.37 °C
[2]
  melting temperature shift: -0.909 °C

## MFAP1 (UniProt P55081)
[1]
  melting temperature shift: 1.88 °C

## CHD1 (UniProt O14646)
[1]
  melting temperature shift: -0.958 °C

## PSMB2 (UniProt P49721)
[2]
  melting temperature shift: -0.476 °C

## USP34 (UniProt Q70CQ2)
[1]
  melting temperature shift: 0.121 °C
[2]
  melting temperature shift: -3.85 °C

## UniProt Q03164
[1]
  melting temperature shift: 2.12 °C

## CELF1 (UniProt Q92879)
[1]
  melting temperature shift: 1.67 °C
[2]
  melting temperature shift: -0.104 °C

## UBE3C (UniProt Q15386)
[1]
  melting temperature shift: 0.0483 °C
[2]
  melting temperature shift: -0.51 °C

## UniProt Q8WUN7
[1]
  melting temperature shift: -3.31 °C

## POLE3 (UniProt Q9NRF9)
[1]
  melting temperature shift: 0.145 °C
[2]
  melting temperature shift: -0.631 °C

## ZFYVE16 (UniProt Q7Z3T8)
[1]
  melting temperature shift: -0.0443 °C
[2]
  melting temperature shift: 2.35 °C

## SEC24C (UniProt P53992)
[1]
  melting temperature shift: -0.464 °C
[2]
  melting temperature shift: 0.0933 °C

## SRC (UniProt P12931)
[1]
  melting temperature shift: -2.42 °C
[2]
  melting temperature shift: -2.04 °C

## DLGAP5 (UniProt Q15398)
[1]
  melting temperature shift: -0.183 °C
[2]
  melting temperature shift: 0.208 °C

## RAF1 (UniProt P04049)
[1]
  melting temperature shift: -1.44 °C
[2]
  melting temperature shift: -0.397 °C

## PRCP (UniProt P42785)
[1]
  melting temperature shift: -0.333 °C
[2]
  melting temperature shift: 0.838 °C

## UniProt O15075
[1]
  melting temperature shift: 0.452 °C
[2]
  melting temperature shift: -1.3 °C

## UniProt Q8WWV6
[2]
  melting temperature shift: -2.97 °C

## POLR2B (UniProt P30876)
[1]
  melting temperature shift: -0.852 °C
[2]
  melting temperature shift: 0.538 °C

## LIN7C (UniProt Q9NUP9)
[1]
  melting temperature shift: 1.2 °C
[2]
  melting temperature shift: -0.0798 °C

## PPP2R2D (UniProt Q66LE6)
[1]
  melting temperature shift: 0.0407 °C
[2]
  melting temperature shift: 0.552 °C

## ZC3H7A (UniProt Q8IWR0)
[1]
  melting temperature shift: -0.927 °C
[2]
  melting temperature shift: 1.49 °C

## TMEM165 (UniProt Q9HC07)
[1]
  melting temperature shift: 2.07 °C
[2]
  melting temperature shift: 2.46 °C

## UniProt Q02952
[1]
  melting temperature shift: -1.9 °C

## GART (UniProt P22102)
[1]
  melting temperature shift: -0.583 °C
[2]
  melting temperature shift: 0.326 °C

## DDHD1 (UniProt Q8NEL9)
[1]
  melting temperature shift: 0.367 °C
[2]
  melting temperature shift: -0.699 °C

## SH3BP5 (UniProt O60239)
[1]
  melting temperature shift: -1.51 °C

## NUP88 (UniProt Q99567)
[1]
  melting temperature shift: -0.265 °C
[2]
  melting temperature shift: -0.0701 °C

## BICD2 (UniProt Q8TD16)
[1]
  melting temperature shift: -0.384 °C
[2]
  melting temperature shift: -0.0665 °C

## UAP1L1 (UniProt Q3KQV9)
[1]
  melting temperature shift: -0.468 °C
[2]
  melting temperature shift: -0.00274 °C

## AGAP3 (UniProt Q96P47)
[1]
  melting temperature shift: -0.00436 °C
[2]
  melting temperature shift: -2.54 °C

## SF3B4 (UniProt Q15427)
[1]
  melting temperature shift: -0.213 °C
[2]
  melting temperature shift: 0.427 °C

## FEN1 (UniProt P39748)
[1]
  melting temperature shift: -0.296 °C
[2]
  melting temperature shift: 0.157 °C

## AGPAT3 (UniProt Q9NRZ7)
[1]
  melting temperature shift: 0.391 °C
[2]
  melting temperature shift: -1.61 °C

## MRI1 (UniProt Q9BV20)
[1]
  melting temperature shift: -1.09 °C
[2]
  melting temperature shift: 0.0188 °C

## BAZ1A (UniProt Q9NRL2)
[1]
  melting temperature shift: 0.661 °C
[2]
  melting temperature shift: 0.66 °C

## FKBP3 (UniProt Q00688)
[1]
  melting temperature shift: -0.945 °C
[2]
  melting temperature shift: -1.29 °C

## A0A0J9YXQ4, A0A0J9YXQ4
[1]
  melting temperature shift: 0.125 °C
[2]
  melting temperature shift: 0.103 °C

## NELFE (UniProt P18615)
[1]
  melting temperature shift: -0.546 °C
[2]
  melting temperature shift: 1.69 °C

## UniProt Q9UPN3
[1]
  melting temperature shift: 3.96e-06 °C
[2]
  melting temperature shift: 0.126 °C

## GORAB (UniProt Q5T7V8)
[1]
  melting temperature shift: 2.73 °C

## SCYL1 (UniProt Q96KG9)
[1]
  melting temperature shift: -0.567 °C
[2]
  melting temperature shift: -0.585 °C

## AGPAT5 (UniProt Q9NUQ2)
[1]
  melting temperature shift: 3.68 °C

## UniProt Q8TBF2
[1]
  melting temperature shift: -0.306 °C

## MRPL2 (UniProt Q5T653)
[1]
  melting temperature shift: 3.85 °C
[2]
  melting temperature shift: -1.31 °C

## DPH6 (UniProt Q7L8W6)
[1]
  melting temperature shift: -0.856 °C
[2]
  melting temperature shift: -0.168 °C

## NPLOC4 (UniProt Q8TAT6)
[1]
  melting temperature shift: -0.196 °C
[2]
  melting temperature shift: -0.766 °C

## PREX1 (UniProt Q8TCU6)
[2]
  melting temperature shift: -0.531 °C

## COPS8 (UniProt Q99627)
[1]
  melting temperature shift: -0.685 °C
[2]
  melting temperature shift: -0.0421 °C

## CDS2 (UniProt O95674)
[1]
  melting temperature shift: 3.43 °C
[2]
  melting temperature shift: -1.39 °C

## TIMM23 (UniProt O14925)
[1]
  melting temperature shift: 2.01 °C
[2]
  melting temperature shift: -1.01 °C

## TGFB1 (UniProt P01137)
[1]
  melting temperature shift: 1.17 °C
[2]
  melting temperature shift: -1.49 °C

## ANXA5 (UniProt P08758)
[1]
  melting temperature shift: -0.149 °C
[2]
  melting temperature shift: 0.0543 °C

## UniProt Q9UBF1
[1]
  melting temperature shift: -2.12 °C
[2]
  melting temperature shift: 0.935 °C

## SPAG7 (UniProt O75391)
[1]
  melting temperature shift: 1.88 °C

## UniProt P78381
[1]
  melting temperature shift: 1.36 °C
[2]
  melting temperature shift: -2.52 °C

## DSG2 (UniProt Q14126)
[1]
  melting temperature shift: 0.634 °C
[2]
  melting temperature shift: 1.45 °C

## ERCC4 (UniProt Q92889)
[1]
  melting temperature shift: 1.97 °C
[2]
  melting temperature shift: -0.109 °C

## IRF2BP2 (UniProt Q7Z5L9)
[1]
  melting temperature shift: -0.867 °C

## PRMT6 (UniProt Q96LA8)
[1]
  melting temperature shift: -2.6 °C
[2]
  melting temperature shift: -0.0971 °C

## UniProt Q9Y383
[1]
  melting temperature shift: -0.643 °C
[2]
  melting temperature shift: -0.321 °C

## UniProt Q9ULD0
[2]
  melting temperature shift: -0.0448 °C

## UniProt Q86SG3
[1]
  melting temperature shift: -0.339 °C

## UniProt Q8NBW4
[1]
  melting temperature shift: 2.01 °C
[2]
  melting temperature shift: -4.61 °C

## TRMT1 (UniProt Q9NXH9)
[1]
  melting temperature shift: -0.951 °C
[2]
  melting temperature shift: -0.0856 °C

## ABCB10 (UniProt Q9NRK6)
[1]
  melting temperature shift: -0.0272 °C
[2]
  melting temperature shift: -0.958 °C

## KIF1BP (UniProt Q96EK5)
[2]
  melting temperature shift: -0.76 °C
